## Library screen at single concentrations

Data taken from ChEMBL document CHEMBL3988442, “University of Dundee, Small-Polar-MMV Screening Library” (2021).

T. brucei: 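Whole-parasite assay of Trypanosoma brucei over 72 hours; the read-out is not stated. Tested at 30 µM. The record gives no direction; compounds that gave an IC50 in retests scored well above the rest, so higher reads as stronger inhibition. Values scatter widely below zero; nearly all retest evidence comes from the higher of the two concentrations used. Of about 64,000 compounds tested this way, about 940 (1.5%) reached 50% or more in at least one test.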
Leishmania in macrophages: 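Cell assay of Leishmania donovani living inside macrophages; the read-out is not stated. Tested at 30 µM. Higher reads as stronger inhibition (inferred: compounds with an IC50 in retests scored well above the rest). Of about 69,000 compounds tested this way, about 1,000 (1.5%) reached 50% or more in at least one test.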

Each number is a percent effect as filed. The controls that fix the scale are not given in the record; negative values are as filed. Compounds were drawn at random from those tested, without regard to their results. Two or more numbers in one place are separate tests of the same structure; such repeats can differ widely. A dash means the value is not listed here; it may have been measured.

With CC(C)(C)OC(=O)NCCNC(=O)c1ccc2cc[nH]c2c1 the screen gave T. brucei: 3.798%; Leishmania in macrophages: 10.87%.
With O=C(c1cccs1)N1CCC2(C1)c1ccccc1S(=O)(=O)N2CC1CC1 (stereo unspecified) the screen gave T. brucei: 16.77%; Leishmania in macrophages: 12.72%.
With COc1ccccc1OCC(=O)NS(=O)(=O)c1ccccc1F the screen gave T. brucei: 5.301%; Leishmania in macrophages: 3.692%.
With CCn1cc(S(=O)(=O)N2CCC(C)CC2)c(C)n1 the screen gave T. brucei: -28.31%; Leishmania in macrophages: 20.85%.
With CN(Cc1ccccc1O)CC1CCCN(CCc2ccc(Cl)cc2)C1 (stereo unspecified) the screen gave T. brucei: 6.545%; Leishmania in macrophages: 40.28% & 15.05%.
With COc1ccc(Cl)cc1-c1cc(NC(=O)C2COCCO2)[nH]n1 (stereo unspecified) the screen gave T. brucei: -14.47%; Leishmania in macrophages: 10.01%.
With CN(C)CCN1CCOCC2(C1)CN(Cc1ccco1)CCO2.O=C(O)C(F)(F)F.O=C(O)C(F)(F)F.O=C(O)C(F)(F)F (stereo unspecified) the screen gave T. brucei: -22.96%; Leishmania in macrophages: -17.41%.
With CCS(=O)(=O)N1CCc2cc(C(=O)N(C)C)c(NCC3CC3)nc2CC1 the screen gave T. brucei: -39.75%; Leishmania in macrophages: 11.26%.
With CCOc1ccccc1CC(=O)N1C[C@H](C2CC2)[C@@H](N)C1 the screen gave T. brucei: 5.493%; Leishmania in macrophages: -19.93%.
With CN(C)CC(=O)N1CCN(c2cc(N3CCCC3CO)ncn2)CC1 (stereo unspecified) the screen gave T. brucei: -49.76%; Leishmania in macrophages: -4.656%.
With CCC(NC(=O)c1cc(CC(C)C)nn1C)c1ccnn1C (stereo unspecified) the screen gave T. brucei: -85.05%; Leishmania in macrophages: 11.66%.
With Cc1nc(CCNC(=O)NCC(O)c2cccc(Cl)c2)cs1 (stereo unspecified) the screen gave T. brucei: -9.991%; Leishmania in macrophages: 6.532%.
With CCC(O)CN(C)Cc1nnc2ccccn12 (stereo unspecified) the screen gave T. brucei: -2.437%; Leishmania in macrophages: 8.703%.
With Cc1ccc(C(=O)N(C)CCOc2ccccc2F)c(=O)[nH]1 the screen gave T. brucei: -11.4%; Leishmania in macrophages: 2.744%.
With CC(C)c1nc(C(=O)NCCn2ccnc2)nn1-c1cccc(F)c1 the screen gave T. brucei: 4.3%; Leishmania in macrophages: 6.026%.
With COCCC(=O)N1CC[C@@H](N2CCOCC2)[C@@H]1Cc1ccccc1.O=C(O)C(F)(F)F the screen gave T. brucei: 17.69%; Leishmania in macrophages: 6.194%.
With Cc1ccc(C(=O)N(C)Cc2ccc3c(c2)OCO3)c(=O)[nH]1 the screen gave T. brucei: 5.11%; Leishmania in macrophages: 34.68%.
With COc1ccc(-c2noc(Cn3cc(C)cn3)n2)c(OC)c1OC the screen gave T. brucei: 2.606%; Leishmania in macrophages: 2.075%.
With Cc1ccccc1CC(=O)N(C)C1CCN(c2ccccn2)CC1 the screen gave T. brucei: -18.97%; Leishmania in macrophages: 8.703%.
With COCCOCC(=O)NC(C#N)c1cccc(Cl)c1Cl (stereo unspecified) the screen gave T. brucei: -25.46%; Leishmania in macrophages: -18.55%.
With CSCCC(O)C(=O)N1CCCN(Cc2ccc(F)cc2)CC1 (stereo unspecified) the screen gave T. brucei: -6.37%; Leishmania in macrophages: 3.874%.
With CCN1CCC(Cn2ccc3c(OC)c(OC)ccc3c2=O)C1 (stereo unspecified) the screen gave T. brucei: 2.093%; Leishmania in macrophages: 21.89%.
With Fc1ccc(CN2CCCC3(COCCN(Cc4c[nH]nn4)C3)C2)cc1.O=C(O)C(F)(F)F.O=C(O)C(F)(F)F (stereo unspecified) the screen gave T. brucei: -13.35%; Leishmania in macrophages: -1.712%.
With Cc1nnc(N2CCOC(Cn3cccn3)C2)c(C#N)c1C (stereo unspecified) the screen gave T. brucei: -15.04%; Leishmania in macrophages: 13.28%.
With [H][C@]12CC[C@@]3(N=C(CC)N(C)C3=O)[C@@]1([H])CN(C(=O)NC(C)C)C2 the screen gave T. brucei: 15.31%; Leishmania in macrophages: 17.11%.
With COc1cccc(-c2nc(CNC(C)Cn3cccn3)cs2)c1 (stereo unspecified) the screen gave T. brucei: 4.775%; Leishmania in macrophages: -7.819%.
With CN1CCC2(COCCN(Cc3ccc4c(c3)OCO4)C2)C1.O=C(O)C(F)(F)F.O=C(O)C(F)(F)F (stereo unspecified) the screen gave T. brucei: -65.81%; Leishmania in macrophages: -31.52%.
With FC(F)(F)Sc1ccccc1NCc1nc(C2CC2)no1 the screen gave T. brucei: -56.58%; Leishmania in macrophages: -20%.
With CC(C)CN(C)Cc1c[nH]nc1-c1ccc(F)cc1F the screen gave T. brucei: -40.86%; Leishmania in macrophages: 15.06%.
With Cc1nc(Nc2ncc(C)s2)cc(C2CCCN2S(C)(=O)=O)n1 (stereo unspecified) the screen gave T. brucei: -10.42%; Leishmania in macrophages: 17.25%.
With CCc1nc(CCNC(=O)Nc2cccc(C(=O)NC)c2C)cs1 the screen gave T. brucei: -27.2%; Leishmania in macrophages: -15.82%.
With CC(C)n1ccnc1C1CCN(C(=O)C2COc3ccccc3O2)CC1 (stereo unspecified) the screen gave T. brucei: 40.85%; Leishmania in macrophages: -2.599%.
With COc1ccc(C(=O)NS(=O)(=O)c2cncc(Br)c2)cc1OC the screen gave T. brucei: -23.89%; Leishmania in macrophages: -4.567%.
With O=C(O)C(F)(F)F.[H][C@]12CN(c3nncs3)C[C@@]1(C(=O)O)CCCN(C1CCOC1)C2 (stereo partly specified) the screen gave T. brucei: -45.01%; Leishmania in macrophages: 23.22%.
With CSCCC(=O)N1CCCN(c2ccccc2C)CC1 the screen gave T. brucei: -19.52%; Leishmania in macrophages: 9.664%.
With CC(C)n1cc(CN2CCCN(C(=O)c3cccn3C)CC2)cn1 the screen gave T. brucei: -43.43%; Leishmania in macrophages: 18.07%.
With COc1ccc(-c2ccc(C(=O)N3CCOCC3CC(=O)O)o2)cc1 (stereo unspecified) the screen gave T. brucei: -55.65%; Leishmania in macrophages: 17.74%.
With O=S(=O)(NCc1ccccc1)Nc1ccc(-n2ccnc2)cc1 the screen gave T. brucei: 16.52%; Leishmania in macrophages: -10.51%.
With O=C(CN1CCC(c2cccc(F)c2)C1)NCC(F)(F)F (stereo unspecified) the screen gave T. brucei: -30.93%; Leishmania in macrophages: 11.34%.
With COC(=O)C1CCCCN1C(=O)c1ccc(N(C)C)cc1F (stereo unspecified) the screen gave T. brucei: 1.067%; Leishmania in macrophages: 23.08%.
With CC(c1ccc(F)cc1)N1CCN(Cc2nccn2C)CC1 (stereo unspecified) the screen gave T. brucei: 1.061%; Leishmania in macrophages: 40.92%.
With CN1CCC2(C=C(C(=O)N(C)C)c3ccccc32)CC1 the screen gave T. brucei: -69.32%; Leishmania in macrophages: 38.98%.
With COCCN(CC1CCCN(C2Cc3ccccc3C2)C1)C(=O)CO (stereo unspecified) the screen gave T. brucei: 11.57%; Leishmania in macrophages: 22.39%.
With N#Cc1ccc(N2CCC(OC3CCOCC3)CC2)cc1Cl the screen gave T. brucei: -0.4722%; Leishmania in macrophages: 58.7%.
With COc1cccc(C(=O)N2CCCC(C(=O)CCc3ccccc3)C2)c1 (stereo unspecified) the screen gave T. brucei: -14.01%; Leishmania in macrophages: -4.654%.
With CCC1(CO)CCCN(C(=O)c2ccc(N3CCN(C)CC3)cc2)C1 (stereo unspecified) the screen gave T. brucei: -53.49%; Leishmania in macrophages: 4.837%.
With CC(=O)N(Cc1noc(C)n1)C1CCN(Cc2ccc(C#N)cc2)C1 (stereo unspecified) the screen gave Leishmania in macrophages: -2.885%.
With O=C(CN1CCN(c2ccccc2F)CC1)Nc1ccc(Cl)cn1 the screen gave T. brucei: -16.68%; Leishmania in macrophages: -0.05497%.

6 of the entries, repeated:

structure,T. brucei,Leishmania in macrophages
CC(=O)N(Cc1noc(C)n1)C1CCN(Cc2ccc(C#N)cc2)C1 (stereo unspecified),-,-2.885
Cc1ccc(C(=O)N(C)Cc2ccc3c(c2)OCO3)c(=O)[nH]1,5.11,34.68
N#Cc1ccc(N2CCC(OC3CCOCC3)CC2)cc1Cl,-0.4722,58.7
O=C(CN1CCN(c2ccccc2F)CC1)Nc1ccc(Cl)cn1,-16.68,-0.05497
CSCCC(=O)N1CCCN(c2ccccc2C)CC1,-19.52,9.664
CN(C)CC(=O)N1CCN(c2cc(N3CCCC3CO)ncn2)CC1 (stereo unspecified),-49.76,-4.656